According to PMC7140648:
These are yes or no findings as the source states them, for the method shown. In cells and extracts the contact can be indirect. Here binding means that the protein was enriched with, or labelled near, the bait; the list need not be complete.

Protein sequences, listed by entry. Tags and fused reporters are not part of them. Lines headed by an entry give the natural chain unless they say otherwise; changes in a name come on top.
UniProt Q04899: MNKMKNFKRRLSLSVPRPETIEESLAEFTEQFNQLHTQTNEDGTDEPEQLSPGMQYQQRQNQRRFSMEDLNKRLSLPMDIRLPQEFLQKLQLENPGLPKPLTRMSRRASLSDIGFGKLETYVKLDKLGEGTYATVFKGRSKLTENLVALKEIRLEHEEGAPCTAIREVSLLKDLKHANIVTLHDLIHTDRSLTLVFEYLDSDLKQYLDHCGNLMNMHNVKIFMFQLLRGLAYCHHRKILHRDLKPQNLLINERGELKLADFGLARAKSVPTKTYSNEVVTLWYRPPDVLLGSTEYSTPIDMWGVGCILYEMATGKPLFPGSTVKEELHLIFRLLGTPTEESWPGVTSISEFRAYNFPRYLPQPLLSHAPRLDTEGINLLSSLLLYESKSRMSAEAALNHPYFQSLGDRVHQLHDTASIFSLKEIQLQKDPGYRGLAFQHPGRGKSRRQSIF
UniProt Q9WUD1: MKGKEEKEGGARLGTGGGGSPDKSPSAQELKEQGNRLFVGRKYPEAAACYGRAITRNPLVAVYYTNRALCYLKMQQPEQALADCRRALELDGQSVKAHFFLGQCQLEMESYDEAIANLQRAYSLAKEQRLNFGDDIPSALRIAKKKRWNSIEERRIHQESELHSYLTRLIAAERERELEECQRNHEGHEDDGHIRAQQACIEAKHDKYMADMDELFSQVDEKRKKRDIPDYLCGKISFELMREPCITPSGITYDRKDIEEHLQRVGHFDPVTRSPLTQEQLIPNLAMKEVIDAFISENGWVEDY

Biological target: CDK18-FLAG S12D (constitutively active) (UniProt Q04899)
Assay: affinity purification with mass spectrometry; CDK18-FLAG K150R or S12D expressed in MCD4 cells, immunoprecipitated through their Flag tags; LC-MS/MS, MaxLFQ, K150R against S12D

Which binding does the source give for “STUB1 (STIP1 homology and U-box containing protein 1) (from UniProt Q9WUD1 1-304) (enzyme)” here?
The binding was “binds”.
